Results deposited as PubChem BioAssay AID1159584 (Peter MacCallum Cancer Centre, 2016).

Test: 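Genes whose loss is lethal only together with E-cadherin loss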 (primary screen)
Cells: human MCF10A breast epithelial cells, parental and CDH1-null
Knock-down reagent: siRNA against human genes
Detection: 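Cell viability by CellTiter-Glo ATP luminescence, each line scaled to the mean of mock wells across plates, then CDH1-null over parental ratio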
Direction: CDH1-null / parental viability ratio: higher = CDH1-null cells survive relatively better than parental
The deposit covers about 18,000 reagents; below is a part drawn at random. Further read-outs or replicates are left out here. Not given: the amount of reagent, the time to read-out.

Gene | CDH1-null / parental viability ratio
SESN3 | 0.98
ZNF804B | 0.73
HMCES | 0.93
MT4 | 0.92
RBM4 | 0.8
LYPD3 | 1.07
TRIM10 | 1.05
NHLH1 | 1.21
BAGE4 | 1.11
RAB33B | 1.1
CDS1 | 0.94
TGIF2 | 1.04
RGS14 | 1.13
MTMR12 | 1.26
ZNF165 | 0.94
TMPRSS5 | 1.14
ATOH1 | 0.7
CCN1 | 0.93
RSRC2 | 1.14
COQ5 | 0.86
ADIPOR1 | 1.19
INPP5F | 1
DENND6A | 1.1
LRFN3 | 0.94
STS | 0.76
CEP57L1 | 1.29
EGFL8 | 0.8
ZNF648 | 0.92
MBLAC2 | 1.4
PCMTD2 | 1.03
NPIPA1 | 1.04
GPRASP1 | 0.85
TRMO | 0.91
VPS25 | 0.81
PRSS42P | 1.62
LYSMD4 | 0.98
FBLN7 | 1.13
OAZ2 | 0.81
MARCKSL1 | 0.82
LRIT1 | 1.13
ARHGDIG | 1.14
PSPC1 | 1.12
FAM131C | 1.25
RHOBTB1 | 1.01
TOGARAM1 | 0.69
PSMB9 | 1.15
